Experimental data: publication PMC3139607
No constants are given. Whether binding was seen depends on the method and setting. Binding can be weak; no strength is given.

Tests used:
[1] = target: membrane CD4 on PM-1 cells pre-treated with recombinant gp120 Ba-L (human (endogenous in PM-1) | HIV-1 isolate Ba-L); assay: flow cytometry on cells; 500,000 cells per sample, 20 min on ice with 1 µg MAb; fluorescein-conjugated anti-mouse IgG; PM-1 cells treated or not with recombinant gp120; RK13 cells expressing Ba-L Env treated or not with 2D-CD4 or CD4-M3; only the binder purified
[2] = target: two-domain (2D) soluble CD4 (amino acids 1 to 183) (human); assay: ELISA; solid-phase 2D-sCD4 (2 µg/ml coating) alone or in equimolar complex with recombinant gp120 (Ba-L or IIIB), complexes pre-formed in ice for 20 min; MAb DB81 in solution; phosphatase-conjugated anti-mouse IgG; incubations 1 h at 20°C (Figure S2); both purified

B1: MAb DB81 (antibody, V domains shown)
VH: EVQLQQSGPELVKPGASVKISCKASGYSFTDYTMLWVKQSHGKSLEWIGNINPYYDTTTYNLNFKGKATMTVDKSSSTAYMQLNSLTSEDSAVYYCAREGDYGHPFAYWGQGTLVTVSS
VL: DIVMTQSHKFMSTSVGDRVSITCKASQDVSTTVAWYQQKPGQSPKLLIYSASYRYTGVPDRFTGSGSGTDFTFTISSVQAEDLAVYYCQQHYSTPPTFGGGTKLEIR
- binding [1]: binds
- binding [2]: binds
